# Measured values as given in PubChem BioAssay AID651640 (Broad Institute, 2012).
# Values joined by “and” are separate entries in the source; they are usually repeats but may differ in a detail not shown here. Identical values can stand only once. The whole screen tested about 350,000 compounds, of which about 6,000 (1.7%) were called active. Inconclusive results, whose numbers are uncertain, are shown with a selection of clear calls. Cut-off read from the data, not from the text of the source: active = CPE inhibition above about 20% (passing the limit was not always enough); inconclusive = no clear call, values can overlap the other calls; tested in BHK-21 cells. Some structures have more than one record in an assay (separate samples or runs), and their calls can disagree.
# Assay: protection of cells from dengue 2 killing – plate reader, single concentration, primary screen (AID 651640);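 note: 0% = median of neutral control wells and 100% = median of positive control wells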
# Conditions: DENV2-infected cells, cytopathic effect rescue, at 9.99 µM, hits give high values
row,SMILES,CPE inhibition
1,Cc1ccc(S(=O)(=O)N(C)C[C@@H]2Oc3ccc(NS(C)(=O)=O)cc3CC(=O)N([C@@H](C)CO)C[C@@H]2C)cc1,inactive: 4.11%
2,Cc1ccc(F)cc1NC(=O)CCNC(=O)c1ccc([N+](=O)[O-])cc1,inactive: -3.03%
3,COc1ccc(S(=O)(=O)Nc2ccc3c(c2)C(=O)N([C@H](C)CO)C[C@H](C)[C@@H](CN(C)S(=O)(=O)c2c(C)noc2C)O3)cc1,inconclusive: 69.6%
4,COc1cccc(Oc2nc(-c3ccccc3O)nc3ccccc23)c1,inconclusive: 37.6%
5,CCCc1ccc(C(O)c2ncc(-c3ccccc3C)[nH]2)cc1 (stereo not drawn),inconclusive: 32.2%
6,COCC#Cc1ccc2c(c1)O[C@H](CN(C)S(=O)(=O)c1ccc(OC)cc1)[C@@H](C)CN([C@H](C)CO)S2(=O)=O,inconclusive: 33.4%
7,CCN1CCN(C(=O)C(=O)c2cn(CC(=O)N(CC)CC)c3ccccc23)CC1,inconclusive: 21.1%
8,COc1cccc(NC(=O)c2nn(C)c(C(=O)Nc3cccc(OC)c3)c2[N+](=O)[O-])c1,inactive: -3.98%
9,CCc1cc(CNC(=O)C2CCC(=O)N(Cc3ccc(Cl)cc3)C2)on1 (stereo not drawn),inactive: -0.325%
10,Cc1cc(C)n2c(NC3CCCC3)c(-c3cccnc3)nc2n1,active: 22.1%
11,Cc1ccc(-n2nc3c(c2NC(=O)/C=C\c2ccc4c(c2)OCO4)CSC3)cc1,inconclusive: 46.9%
12,COc1ccc2c(c1OC)c(=O)n1c3ccc(OC(C)C(=O)NCCN4CCOCC4)cc3c3ccnc2c31 (stereo not drawn),inactive: -4.16%
13,CC(C)=N/N=c1\scc(C)n1Cc1ccco1,inactive: -0.845%
14,CC(Oc1ccc2c3c(c(=O)oc2c1)CCC3)C(=O)NCCCn1ccnc1 (stereo not drawn),inconclusive: 34.2%
15,C[C@@H]1CN([C@@H](C)CO)C(=O)c2cc(NS(=O)(=O)c3cccs3)ccc2O[C@H]1CN(C)S(C)(=O)=O,inconclusive: 31.7%
16,COc1ccc(NC(=O)CN(C)C(=O)Cc2ccc(S(=O)(=O)N3CCOCC3)s2)cc1,inactive: -8.57%
17,CC(C)NC(=O)Nc1ccc2c(c1)CC(=O)N([C@@H](C)CO)C[C@@H](C)[C@H](CN(C)S(=O)(=O)c1cn(C)cn1)O2,inactive: 6.51%
18,COc1cc(CNc2nnnn2C)ccc1OCc1ccc(F)cc1Cl,inconclusive: 20.6%
19,CO[C@H]1CN(C)C(=O)c2ccc(NC(=O)c3ccc(-c4ccccc4)cc3)cc2OC[C@@H](C)NC[C@H]1C,inconclusive: 40.2%
20,O=C(NCCCCc1ccccc1)c1ccccc1Br,inactive: 1.99%
21,Cc1ccc(S(=O)(=O)Nc2ccc3c(c2)C(=O)N([C@@H](C)CO)C[C@H](C)[C@@H](CN(C)Cc2ccc(C(F)(F)F)cc2)OCCCC[C@H](C)O3)cc1,inactive: -25.4%
22,O=C(c1cccnc1)C1CCCN(Cc2nc(Cc3ccccc3F)no2)C1 (stereo not drawn),inactive: 1.48%
23,Clc1cccc(-c2ccc(CNCc3ccccn3)o2)c1,inconclusive: 22.4%
24,CCCCC(=O)NC(=S)Nc1cccc(Cl)c1N1CCCCC1,inconclusive: 30.2%
25,CCC1=NN2C(=N)/C(=C\c3ccc(OCCOc4ccccc4)c(OC)c3)C(=O)N=C2S1,inconclusive: 32.3%

row,SMILES,CPE inhibition
1,COc1ccc(CCNc2nc(-c3ccccn3)cs2)cc1OC,inactive: -6.8%
2,N#CC1=CN(Cc2ccccc2)C=C(/C=N/Nc2ccccc2)C1,inactive: 17.1%
3,CC(=O)C1=C(O)C(=O)N(CCc2ccccc2)C1c1ccccc1[N+](=O)[O-] (stereo not drawn),active: 30.5%
4,CCC(=O)N/N=c1/sc2ccccc2n1C,inactive: -0.987%
5,Cc1noc(C)c1S(=O)(=O)N(C)C[C@@H]1OCCCC[C@@H](C)Oc2ccc(NC(=O)CCC(F)(F)F)cc2C(=O)N([C@H](C)CO)C[C@H]1C,inconclusive: 49.9%
6,CCC(C(=O)NC1CCCC1)n1c(-c2ccnc3ccccc23)nc2ccccc21 (stereo not drawn),inactive: -3.67%
7,CNC[C@H]1OCCCC[C@@H](C)Oc2ccc(N(C)C)cc2C(=O)N([C@H](C)CO)C[C@H]1C,inconclusive: 84.7%
8,COc1cccc(C#Cc2cnc3c(c2)C(=O)N([C@H](C)CO)C[C@@H](C)[C@@H](CN(C)C)O3)c1,inconclusive: 23.3%
9,CC(=O)Oc1ccc(/C=N/NC(=O)c2ccc(N(C)S(=O)(=O)c3ccccc3)cc2)cc1,inconclusive: 25%
10,CNC[C@@H]1Oc2ccc(NC(=O)NC(C)C)cc2C(=O)N([C@@H](C)CO)C[C@H]1C,inactive: -2.24%
11,COc1ccc(-c2ccc3c(c2)[C@@H]2[C@@H](CCN2Cc2ccccc2F)[C@H](CO)N3)cc1,active: 23.1%
12,CC(=O)N(C)C[C@H]1Oc2cc(C#C[C@@H](C)O)ccc2S(=O)(=O)N([C@H](C)CO)C[C@H]1C,inconclusive: 16.8%
13,COc1ccc(NC(=O)Cn2nnc(C(=O)NCCc3ccccc3)c2N)c(OC)c1,inconclusive: 36.4%
14,C=C(C)Cn1c(-c2ccncc2)n[nH]c1=S,inconclusive: 53.4%
15,CCn1c(=N)c(S(=O)(=O)c2ccc(C)cc2)cc2c(=O)n3ccccc3nc21,inconclusive: 21.5%
16,COCCNC(=O)C[C@H]1CC[C@@H]2[C@H](COc3ccc(NC(=O)C4CCOCC4)cc3C(=O)N2C)O1,inactive: -4.65%
17,CCc1noc(C)c1C(=O)N(CC(C)C)c1c(N)n(Cc2ccccc2)c(=O)[nH]c1=O,inconclusive: 23%
18,CC=Cc1ccc2n(c1=O)C[C@@H]1[C@@H](CO)[C@H](C(=O)NCC3CC3)N(C(=O)CC3CC3)[C@H]21 (mixture of isomers),inactive: -10.6%
19,CO[C@H](CN(C)CC1CCOCC1)[C@@H](C)CN(C(=O)Nc1ccc(F)cc1)[C@@H](C)CO,inactive: 10%
20,CSc1cccc(NC(=O)c2nnn(CC(=O)Nc3cc(C)cc(C)c3)c2N)c1,inconclusive: 38.7%
21,O=C(COC(=O)CNC(=O)c1ccccc1)NC(=O)NC1CCCCC1,inactive: -4.33%
22,C[C@H]1CN([C@@H](C)CO)C(=O)c2cc(-c3ccc(F)cc3)cnc2O[C@H]1CN(C)C(=O)c1ccccn1,inactive: -4.83%
23,C[C@H](CO)N1C[C@H](C)[C@@H](CN(C)S(C)(=O)=O)Oc2ccc(NC(=O)Nc3ccccc3)cc2C1=O,active: 88.5%
24,Nc1nc2c(ncn2[C@@H]2O[C@H](CNC(=O)[C@H](N)Cc3ccccc3)[C@@H](O)[C@H]2O)c(=O)[nH]1,inconclusive: 60.9%
25,C[C@H](CO)N1C[C@H](C)[C@H](CN(C)S(=O)(=O)c2ccc(F)cc2)Oc2ncc(Br)cc2C1=O,inconclusive: 20.9%

row,SMILES,CPE inhibition
1,CN1C(=O)c2cc(NC(=O)NC3CCCC3)ccc2OC[C@@H]2O[C@H](CC(=O)O)CC[C@H]21,active: 57.1%
2,CC(=O)c1ccc(NC(=S)Nc2ccc(Br)c(Cl)c2)cc1,inconclusive: 24.8%
3,O=C(C[C@@H]1CC[C@H](NC(=O)C2CCC2)[C@H](CO)O1)Nc1nccs1,inconclusive: 23.4%
4,CC(O)(c1cccc(F)c1)c1nc(/C=C/c2ccccc2)cs1 (stereo not drawn),active: 22.3%
5,C[C@H](CO)N1C[C@H](C)[C@@H](CN(C)S(C)(=O)=O)Oc2ccc(NC(=O)Cc3ccccc3)cc2C1=O,inactive: -5.67% and inactive: 2.97%
6,C[C@@H]1CCCCO[C@H](CN(C)C(=O)CCCN(C)C)[C@H](C)CN([C@@H](C)CO)C(=O)c2cc(NS(=O)(=O)c3ccc(F)cc3)ccc2O1,inactive: -0.027%
7,C[C@@H]1CN([C@@H](C)CO)C(=O)c2cc(NC(=O)Nc3ccc(F)cc3)ccc2O[C@H]1CN(C)Cc1ccncc1,inactive: -0.895%
8,COc1ccc(N2CCN(C(=O)c3ccc(CS(=O)(=O)c4ccc(Br)cc4)o3)CC2)cc1,inconclusive: 32.3%
9,COc1ccc2c3c([nH]c2c1)[C@@H](CO)N(C(=O)c1cccc(F)c1)CC31CCN(C(=O)c2cccc(F)c2)CC1,active: 21.7%
10,CCCC(=O)Nc1ccc2c(c1)C(=O)N(C)[C@H]1CC[C@H](CC(=O)NCc3ccccc3)O[C@@H]1CO2,inconclusive: 37.4%
11,CO[C@@H]1CN(C)C(=O)c2cc(NC(=O)c3ccc4c(c3)OCO4)ccc2OC[C@@H](C)N(CC2CC2)C[C@@H]1C,active: 77.4%
12,O=C(NCCCN1CCCC1=O)Nc1ccc(Br)cc1Cl,inconclusive: 40.1%
13,Cn1cccc1/C=C1\SC(=O)N(CC(=O)Nc2ccc(Cl)cc2)C1=O,inactive: 4.69%
14,COc1cc2ccccc2cc1C(=O)OCc1nc2ccsc2c(=O)[nH]1,inconclusive: 36.8%
15,COc1ccc(CC(N)c2csc(NC(=O)Nc3ccccc3-c3ccccc3)n2)cc1 (stereo not drawn),inactive: 12.4%
16,O=C(C[C@@H]1CC[C@H]2[C@@H](COC[C@@H](O)CN2C(=O)Nc2ccc(C(F)(F)F)cc2)O1)NCC1CCCCC1,inactive: -3%
17,COc1cccc(-c2cc3nc(NCc4ccc5occc5c4)n(C)c(=O)c3s2)c1,inconclusive: 54.6%
18,CN1C(C(=O)Nc2ccc(C(=O)O)cc2)=C(O)c2ccccc2S1(=O)=O,inconclusive: 22.4%
19,CN(C)C(=O)c1ccc(-c2ccc3c(c2)[C@H]2[C@H](CCN2C(=O)c2ccccn2)[C@H](CO)N3)cc1,active: 26%
20,NC(=O)/C(=C\c1ccco1)NC(=O)c1ccco1,inconclusive: 30.7%
21,Cc1ccccc1-c1cccc([C@@H]2C[C@H]3[C@H](CON3C)CN2C(=O)C(C)(C)C)c1,inconclusive: 39.5%
22,CCc1sc(C(=O)NCCCn2ccnc2)cc1Br,inconclusive: 27.9%
23,CCCCNC(=O)C1(C)CCCCN1C(=O)c1ccc2c(c1)C(C)(C)CCC2(C)C (stereo not drawn),inconclusive: 35.9%
